In US20070248536A1:

Tests used:
proNGF [1] = experiment: affinity chromatography, SPC7-E9 coupled to Fractogel EMD Epoxy, 400 µg purified proNGF applied, elution with 0.1 M glycine pH 2.2
proNGF [2] = experiment: ELISA, plate coated with 10 µg/ml proNGF, detection with anti-human gamma-II-crystallin antibody-POD conjugate
proNGF [3] = experiment: affinity chromatography, SPC7-E9 coupled to Fractogel EMD Epoxy, elution with 0.1 M glycine pH 2.2
proNGF [4] = experiment: SDS PAGE of fractions of the SPC7-E9 affinity column, elution with glycine pH 2.2
proNGF [5] = experiment: Biacore; by example 8 SPC7-E9 coupled by NHS/EDC to a CM5 chip and proNGF passed over it; the legend names a chip with proNGF

binding (proNGF [1]): binds | binding (proNGF [2]): binds | binding (proNGF [3]): binds | binding (proNGF [4]): binds | binding (proNGF [5]): binds
B1: Affilin variation SPC7-E9 (designed binder)
chain: MGFICFLEDRAFQGRSYACDTDCPNLQPYFSRCNSISVLSGCWMIYERPNYQGHQYFLRRGEYPDYQQWMGLSDSIRSCCLIPPHSGAYRMKIYDRDELRGQMSELTDDCLSVQDRFHLTEIHSLNVLEGSWILYEMPNYRGRQYLLRPGEYRRFLDWGAPNAKVGSLRRVMDLYLEHHHHHH

These are yes or no findings as the source states them, for the method shown. Binding can be weak; no strength is given.
